Here are results for six molecules from PMC10899660, “Global fungal-host interactome mapping identifies host targets of candidalysin” (Nature Communications, 2024).

Chains of the proteins cited; added tags and fusions are not shown. Residues count along the entry.
Ece1-II peptide, Gal4 activation domain fusion (Q07730, residues 32-61): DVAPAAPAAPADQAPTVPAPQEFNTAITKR
Ece1-IV peptide, Gal4 activation domain fusion (Q07730, residues 94-126): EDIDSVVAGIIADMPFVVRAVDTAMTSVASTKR
Ece1-V peptide, Gal4 activation domain fusion (Q07730, residues 127-160): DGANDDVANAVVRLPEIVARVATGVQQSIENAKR
Ece1-VI peptide, Gal4 activation domain fusion (Q07730, residues 161-194): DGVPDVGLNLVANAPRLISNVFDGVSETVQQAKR
Ece1-VII peptide, Gal4 activation domain fusion (Q07730, residues 195-228): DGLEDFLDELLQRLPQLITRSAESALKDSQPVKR
Ece1-VIII peptide, Gal4 activation domain fusion (Q07730, residues 229-271): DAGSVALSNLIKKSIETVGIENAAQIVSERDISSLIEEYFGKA

Holding throughout (assay): two-hybrid; HT-eY2H screen: Ece1 peptides as Gal4 activation domain fusions (AD-Y, called bait, yeast Y8930), human ORFeome clones (n = 13,761) as DB-X fusions (called prey, yeast Y8800); mated and spotted on SC-Leu-Trp, SC-Leu-Trp-His and SC-Leu-His+CHX; positive = activation of GAL1::HIS3 in a CHX-sensitive manner; clones confirmed by Sanger sequencing
The target of assay [1] is Ece1-V peptide, Gal4 activation domain fusion (Candida albicans) (UniProt Q07730).
For assay [2], the target named is Ece1-II peptide, Gal4 activation domain fusion (Candida albicans) (UniProt Q07730).
Assay [3] deals with Ece1-IV peptide, Gal4 activation domain fusion (Candida albicans) (UniProt Q07730).
Assay [4] has as its target Ece1-VII peptide, Gal4 activation domain fusion (Candida albicans) (UniProt Q07730).
The target of assay [5] is Ece1-VI peptide, Gal4 activation domain fusion (Candida albicans) (UniProt Q07730).
Assay [6] addresses Ece1-VIII peptide, Gal4 activation domain fusion (Candida albicans) (UniProt Q07730).

No constants are given. Whether binding was seen depends on the method and setting. Some results given as binding are weak or reduced against the parent protein; the word gives no strength. Tags and fused reporters may be left off the sequences shown.

B1: GLRX3, DB fusion (human ORFeome clone) (protein, UniProt O76003 1-335)
chain: MAAGAAEAAVAAVEEVGSAGQFEELLRLKAKSLLVVHFWAPWAPQCAQMNEVMAELAKELPQVSFVKLEAEGVPEVSEKYEISSVPTFLFFKNSQKIDRLDGAHAPELTKKVQRHASSGSFLPSANEHLKEDLNLRLKKLTHAAPCMLFMKGTPQEPRCGFSKQMVEILHKHNIQFSSFDIFSDEEVRQGLKAYSSWPTYPQLYVSGELIGGLDIIKELEASEELDTICPKAPKLEERLKVLTNKASVMLFMKGNKQEAKCGFSKQILEILNSTGVEYETFDILEDEEVRQGLKAYSNWPTYPQLYVKGELVGGLDIVKELKENGELLPILRGEN
B1: the binding entry in assay [1], in assay [2] and in assay [3] was “binds” in each case.

B2: TADA2B, DB fusion (human ORFeome clone) (protein, UniProt Q86TJ2 1-420)
chain: MAELGKKYCVYCLAEVSPLRFRCTECQDIELCPECFSAGAEIGHHRRYHGYQLVDGGRFTLWGPEAEGGWTSREEQLLLDAIEQFGFGNWEDMAAHVGASRTPQEVMEHYVSMYIHGNLGKACIPDTIPNRVTDHTCPSGGPLSPSLTTPLPPLDISVAEQQQLGYMPLRDDYEIEYDQDAETLISGLSVNYDDDDVEIELKRAHVDMYVRKLKERQRRKNIARDYNLVPAFLGKDKKEKEKALKRKITKEEKELRLKLRPLYQFMSCKEFDDLFENMHKEKMLRAKIRELQRYRRNGITKMEESAEYEAARHKREKRKENKNLAGSKRGKEDGKDSEFAAIENLPGFELLSDREKVLCSSLNLSPARYVTVKTIIIKDHLQKRQGIPSKSRLPSYLDKVLKKRILNFLTESGWISRDAS
For the molecule B2, the binding entry in assay [4] was “binds”; in assay [5], “binds”; in assay [1] it was “binds”; in assay [2] it was “binds”; in assay [6] it was “binds”; in assay [3], “no binding”.

B3: OR7A10, DB fusion (human ORFeome clone) (protein, UniProt O76100 1-309)
chain: MKSWNNTIILEFLLLGISEEPELQAFLFGLFLSMYLVTVLGNLLIILATISDSHLHTPMYFFLSNLSFVDICFVSTTVPKMLVNIQTHNKVITYAGCITQMCFFLLFVGLDNFLLTVMAYDRFVAICHPLHYMVIMNPQLCGLLVLASWIMSVLNSMLQSLMVLPLPFCTHMEIPHFFCEINQVVHLACSDTFLNDIVMYFAVALLGGGPLTGILYSYSKIVSSIRAISSAQGKYKAFSTCASHLSVVSLFYGTCLGVYLSSAATHNSHTGAAASVMYTVVTPMLNPFIYSLRNKHIKGAMKTFFRGKQ
Regarding B3, the binding result in assay [1], in assay [2] and in assay [3] was “binds” in each case.

B4: UBTD2, DB fusion (human ORFeome clone) (protein, UniProt Q8WUN7 1-234)
chain: MGGCVGAQHDSSGSLNENSEGTGVALGRNQPLKKEKPKWKSDYPMTDGQLRSKRDEFWDTAPAFEGRKEIWDALKAAAHAFESNDHELAQAIIDGANITLPHGALTECYDELGNRYQLPVYCLAPPINMIEEKSDIETLDIPEPPPNSGYECQLRLRLSTGKDLKLVVRSTDTVFHMKRRLHAAEGVEPGSQRWFFSGRPLTDKMKFEELKIPKDYVVQVIVSQPVQNPTPVEN
For B4, the binding entry in assay [5], in assay [2] and in assay [6] was “binds” each time.

B5: OR7C2, DB fusion (human ORFeome clone) (protein, UniProt O60412 1-319)
chain: MERGNQTEVGNFLLLGFAEDSDMQLLLHGLFLSMYLVTIIGNLLIILTISSDSHLHTPMYFFLSNLSFADICFTSTTVPKMLVNIQTQSKMITFAGCLTQIFFFIAFGCLDNLLLTMTAYDRFVAICYPLHYTVIMNPRLCGLLVLGSWCISVMGSLLETLTILRLSFCTNMEIPHFFCDPSEVLKLACSDTFINNIVMYFVTIVLGVFPLCGILFSYSQIFSSVLRVSARGQHKAFSTCGSHLSVVSLFYGTGLGVYLSSAVTPPSRTSLAASVMYTMVTPMLNPFIYSLRNKDMKGSLGRLLLRATSLKEGTIAKLS
Consider B5, for which the binding result in assay [1], in assay [2] and in assay [3] was “binds” in each case.

B6: UBXN2B, DB fusion (human ORFeome clone) (protein, UniProt Q14CS0 1-331)
chain: MAEGGGPEPGEQERRSSGPRPPSARDLQLALAELYEDEVKCKSSKSNRPKATVFKSPRTPPQRFYSSEHEYSGLNIVRPSTGKIVNELFKEAREHGAVPLNEATRASGDDKSKSFTGGGYRLGSSFCKRSEYIYGENQLQDVQILLKLWSNGFSLDDGELRPYNEPTNAQFLESVKRGEIPLELQRLVHGGQVNLDMEDHQDQEYIKPRLRFKAFSGEGQKLGSLTPEIVSTPSSPEEEDKSILNAVVLIDDSVPTTKIQIRLADGSRLIQRFNSTHRILDVRNFIVQSRPEFAALDFILVTSFPNKELTDESLTLLEADILNTVLLQQLK
Turning to B6, the binding result in assay [1], in assay [2] and in assay [3] was “binds” in each case.
